Reference: paper PMC12040169 (PLOS Biology, 2025)
The list shows a part of the results.

The compounds below were run on T1, CTL2-GFP (C. trachomatis L2/434/Bu, GFP-expressing). Details: bulk GFP, single well; 28.5 h, 10 µM; inhibitor.
T1 construct: L2/434/Bu, GFP-expressing
Set-up: species or system HeLa; Intracellular C. trachomatis growth in HeLa cells, bulk GFP fluorescence relative to DMSO

| SMILES | % of control remaining |
| --- | --- |
| Cc1cc(-c2ccc(/N=C/c3cccc(O)c3O)c(C)c2)ccc1/N=C/c1cccc(O)c1O [CBK261613] | 96.7658% |
| C#CCNC(=O)[C@H]1O[C@H](CCN2CCCCC2)CC[C@@H]1O [CBK288728] | 136.403% |
| CCCN1CC(NS(=O)(=O)c2cc(OC)c(Cl)cc2OC)CC1=O (stereo not drawn) [CBK307581] | 113.077% |
| Cc1nn(CC(=O)N2CCCC(C)C2)c(=O)c2cc3sccc3n12 (stereo not drawn) [CBK284046] | 140.607% |
| Cc1ccnc2c1C(=O)C1(CC2)CCN(S(=O)(=O)c2c(C)noc2C)CC1 [CBK059557T] | 118.466% |
| COc1cc(NS(=O)(=O)c2ccc(NC(=O)c3ccc(C)o3)cc2)nc(OC)n1 [CBK268182] | 88.8328% |
| CC1=CC(=O)OC1(O)c1ccc(Br)cc1 (stereo not drawn) [CBK022687] | 120.334% |
| CC(Cc1nc(C2CC2)cs1)n1cc(Cl)cn1 (stereo not drawn) [CBK304707] | 123.937% |
| O=C(CSc1ccccc1)Nc1cccc(Oc2ccc3c(c2)C(=O)NC3=O)c1 [CBK266500] | 118.346% |
| CC(C)[C@H]1SC(NC[C@H](C)c2ccccc2)=NC1=O [CBK074034] | 114.504% |
| CN(C)CCN(C)c1cccc(-c2ccc(CCC(=O)O)cc2)n1 [CBK036983] | 174.382% |
| C[C@@H]1CNCCN1c1nccnc1OCCOc1cccnc1OCCN [CBK040757T] | 100% |
| O=c1c2c(nc(NCCO)n1-c1ccccc1)-c1ccccc1CC21CCCCC1 [CBK262589] | 99.8634% |
| CN(C)CCNC(=O)c1ccc(-c2cnc(OCC3CCN(C(=O)OC(C)(C)C)CC3)nc2)cc1 [CBK167544] | 119.291% |
| O=c1[nH]nc(-c2cccs2)n1-c1cccnc1 [CBK283854] | 119.232% |
| CC(C)n1cc(C(=O)N2CCCC2c2nc3ccccc3[nH]2)cn1 (stereo not drawn) [CBK284667] | 89.4223% |
| CN(C)CCN1C(=O)C(O)=C(C(=O)c2cccs2)C1c1ccc([N+](=O)[O-])cc1 (stereo not drawn) [CBK264584] | 109.957% |
| COc1cc(/C=C2\SC(=N)NC2=O)ccc1OCC(=O)O [CBK262675] | 114.268% |
| CCN(CC(=O)NCc1ccc(F)cc1)S(=O)(=O)c1ccc(Cl)s1 [CBK305837] | 112.054% |
| NS(=O)(=O)c1ccc(NC(=O)CCSc2ccc(Cl)cc2)cc1 [CBK269322] | 149.045% |
| Cc1c(CN2CCC(N(C)CCN(C)C)CC2)oc2ccccc12 [CBK282038] | 135.931% |
| Cc1noc2nc(-c3ccco3)cc(C(=O)NCc3nc4ccccc4[nH]3)c12 [CBK295608] | 59.5648% |
| CCOC(=O)N1CCC(NS(=O)(=O)c2cc(Cl)sc2Cl)CC1 [CBK045462] | 154.895% |
| O=C(COc1ccc(S(=O)(=O)N2CCCCC2)cc1)NCc1ccccn1 [CBK268517] | 134.405% |
| O=C(c1ccco1)N1CCN(c2ccc(-c3ccc(F)c(Cl)c3)cn2)CC1 [CBK037683] | 105.159% |
| Oc1ccccc1Nc1nc(NC2CCCC2)c2ccccc2n1 [CBK268402C] | 47.1199% |

| SMILES | % of control remaining |
| --- | --- |
| CC(C)c1ccc(S(=O)(=O)NCc2csc3ccccc23)cc1 [CBK044662] | 96.6367% |
| CN(C)CCN1C(=O)C2C3c4ccccc4C([N+](=O)[O-])(c4ccccc43)C2C1=O (stereo not drawn) [CBK269286] | 127.22% |
| C=CCn1nnc(NC(=O)COc2ccccc2)n1 [CBK288131] | 125.185% |
| CC(=O)Nc1nc(-c2cccs2)c(-c2cc(C)no2)s1 [CBK284493] | 131.137% |
| CC(C)c1cc2c(s1)NC(c1ccccc1)NC2=O (stereo not drawn) [CBK288209] | 118.403% |
| COc1ccc(-c2c(C(F)(F)F)oc3c(CN4CC(C)OC(C)C4)c(O)ccc3c2=O)cc1OC (stereo not drawn) [CBK217829] | 126.153% |
| COCCCn1c(=O)[nH]c2ncc(-c3cccnc3)nc21 [CBK064929] | 151.29% |
| Cn1ccnc1CN1C[C@@H]2CN(C(=O)C3CCCC3)C[C@]2(C(=O)O)C1 [CBK307201] | 146.707% |
| CCOC(=O)N1CCN(S(=O)(=O)c2ccc3[nH]c(=O)oc3c2)CC1 [CBK304679] | 98.2299% |
| CCc1nn(CC(=O)NC(C)(C)C)c(=O)c2cc3sccc3n12 [CBK284056] | 117.524% |
| c1csc(C2CN(c3nccn4cnnc34)CCO2)c1 (stereo not drawn) [CBK306380] | 109.607% |
| O=C(Nc1nc2ccccc2[nH]1)C1c2ccccc2Oc2ccccc21 [CBK265454] | 116.311% |
| CC(C)C(NC(=O)c1ccc(CS(C)(=O)=O)cc1)c1ccc(C(C)(C)C)cc1 (stereo not drawn) [CBK296705] | 131.586% |
| Cc1cccc(C2(O)CCN(C(=O)c3cc(C(C)C)nn3C)CC2)c1 [CBK282163] | 129.35% |
| OCc1ccccc1-c1cc(N2CCN(Cc3cccnc3)CC2)n2nccc2n1 [CBK037105] | 223.454% |
| COc1cc(-c2cncc(N(CCO)CCO)n2)cc(OC)c1OC [CBK065544] | 96.4654% |
| CCCCOC(=O)c1ccc(NC(=O)NCCc2cccs2)cc1 [CBK043381] | 80.6454% |
| CCc1nnc(NS(C)(=O)=O)s1 [CBK062197] | 84.8107% |
| O=C(Nc1ccc(N2CCN(Cc3ccccc3F)CC2)cc1)c1cccnc1 [CBK267250] | 175.985% |
| Cc1cc(CNC(=O)C(C)Cn2cccn2)on1 (stereo not drawn) [CBK281486] | 97.6298% |
| O=C(O)c1cc(NC(=O)c2ccco2)cc(C(=O)O)c1 [CBK263360] | 119.04% |
| CCCC(=O)N1CCC(c2cc3n(n2)[C@@H](C(F)(F)F)C[C@@H](C)N3)C1 (stereo partly drawn) [CBK282237] | 111.833% |
| O=C(O)CCSCC(=O)c1ccc(OC(F)F)cc1 [CBK286991] | 133.633% |
| Nc1ncnc(N(c2ccccc2)c2ccccc2)n1 [CBK288139] | 132.798% |
| Nc1ncc(-c2ccc(Cl)cc2)nc1-c1ccc(CCC(=O)O)cc1 [CBK064063] | 159.023% |

Grouped by structure, those above with a nitro group on carbon

| SMILES | % of control remaining |
| --- | --- |
| CN(C)CCN1C(=O)C(O)=C(C(=O)c2cccs2)C1c1ccc([N+](=O)[O-])cc1 (stereo not drawn) [CBK264584] | 109.957% |
| CN(C)CCN1C(=O)C2C3c4ccccc4C([N+](=O)[O-])(c4ccccc43)C2C1=O (stereo not drawn) [CBK269286] | 127.22% |
